According to paper PMC10380613:
These are yes or no findings as the source states them, for the method shown.

What was measured:
Assay in all cases: two-hybrid; GAL4 system (Matchmaker, Clontech); baits in pGBT9 (Gal4 BD), preys in pGAD424 (Gal4 AD); S. cerevisiae AH109; HIS3 reporter, growth on SD/-His/-Leu/-Trp with 20 mM 3-AT, 30 °C; triplicate; each protein as bait and as prey
[1] = target: T1, MOY male-determining protein of Ceratitis capitata (Ceratitis capitata)
T1 sequence: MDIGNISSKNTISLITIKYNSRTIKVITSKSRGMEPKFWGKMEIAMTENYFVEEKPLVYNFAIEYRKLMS

[2] = target: Ceratitis capitata Transformer (CcTRA) (Ceratitis capitata)
[3] = target: Ceratitis capitata Transformer 2 (CcTRA2) (Ceratitis capitata)

With Ceratitis capitata Transformer (CcTRA) the binding [1] was “no binding”.

With “Ceratitis capitata Transformer 2 (CcTRA2)” the binding [1] was “no binding”.

B1: MOY male-determining protein of Ceratitis capitata (protein, UniProt A0A5B8HDM7 1-70)
chain: MDIGNISSKNTISLITIKYNSRTIKVITSKSRGMEPKFWGKMEIAMTENYFVEEKPLVYNFAIEYRKLMS
With B1 the binding [2] was “no binding” and the binding [3] was “no binding”.
